PubChem BioAssay AID1159578 – Peter MacCallum Cancer Centre | 2015
This is a random part of about 18,000 reagents. About 1,030 of them (5.7%) count as active. 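Inactive calls also include pools with fewer than 3300 nuclei, whose migration was not assessed.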 The raw values are shown without normalisation. Further read-outs or replicates are left out here.

- Test: 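siRNA pools altering how lymphatic endothelial cells close a scratch wound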 (primary screen)
- Cell system: human lymphatic endothelial cells
- Knock-down reagent: siRNA pool against human genes, 40 nM
- Duration: 48 h after transfection
- Detection: 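High-content imaging of dye-stained cells in a scratch assay measures filled wound area and nuclei per well; duplicate means given as ratio to mock and robust z-score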
- Reading the numbers: migration robust z-score: higher = faster migration into the scratch; nuclei per well: higher = more cells in the well
- Rule for the call: 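Pools averaging fewer than 3300 nuclei are never called; remaining pools count as changed when migration robust z lies outside -2 to 2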
- Calls: active = migration changed; inactive = no migration change, or too few cells

HOXB6 (homeobox B6) [SID255350274] → migration robust z-score = -1.01; nuclei per well, duplicate mean = 5030; activity call = inactive
FDCSP (follicular dendritic cell secreted protein) [SID255364596] → migration robust z-score = -1.18; nuclei per well, duplicate mean = 6149; activity call = inactive
CADPS2 (calcium dependent secretion activator 2) [SID255362095] → migration robust z-score = 1.19; nuclei per well, duplicate mean = 5454; activity call = inactive
STX1A (syntaxin 1A) [SID255352684] → migration robust z-score = -0.1; nuclei per well, duplicate mean = 6279; activity call = inactive
UHRF2 (ubiquitin like with PHD and ring finger domains 2) [SID255362311] → migration robust z-score = -1.68; nuclei per well, duplicate mean = 3960; activity call = inactive
RPL13 (ribosomal protein L13) [SID255352172] → migration robust z-score = -0.88; nuclei per well, duplicate mean = 4477; activity call = inactive
NRARP (NOTCH regulated ankyrin repeat protein) [SID255365945] → migration robust z-score = 0.29; nuclei per well, duplicate mean = 5908; activity call = inactive
VPS37C (VPS37C subunit of ESCRT-I) [SID255358372] → migration robust z-score = -1.86; nuclei per well, duplicate mean = 2866; activity call = inactive
ZNF318 (zinc finger protein 318) [SID255356445] → migration robust z-score = 0.01; nuclei per well, duplicate mean = 6646; activity call = inactive
PAQR5 (progestin and adipoQ receptor family member 5) [SID255358212] → migration robust z-score = -2.84; nuclei per well, duplicate mean = 3411; activity call = active
PKN1 (protein kinase N1) [SID255351802] → migration robust z-score = 0.88; nuclei per well, duplicate mean = 6024; activity call = inactive
SAXO4 (stabilizer of axonemal microtubules 4) [SID255364234] → migration robust z-score = 1.1; nuclei per well, duplicate mean = 5283; activity call = inactive
HDAC5 (histone deacetylase 5) [SID255354742] → migration robust z-score = -1.14; nuclei per well, duplicate mean = 4742; activity call = inactive
CUL5 (cullin 5) [SID255353379] → migration robust z-score = 0.75; nuclei per well, duplicate mean = 5601; activity call = inactive
PWWP3A (PWWP domain containing 3A, DNA repair factor) [SID255361594] → migration robust z-score = -1.49; nuclei per well, duplicate mean = 6560; activity call = inactive
KCNK4 (potassium two pore domain channel subfamily K member 4) [SID255357357] → migration robust z-score = -0.44; nuclei per well, duplicate mean = 5366; activity call = inactive
MORN3 (MORN repeat containing 3) [SID255364671] → migration robust z-score = 0.85; nuclei per well, duplicate mean = 6490; activity call = inactive
DUSP23 (dual specificity phosphatase 23) [SID255358283] → migration robust z-score = -1.01; nuclei per well, duplicate mean = 4708; activity call = inactive
TMEM254 (transmembrane protein 254) [SID255360694] → migration robust z-score = -0.68; nuclei per well, duplicate mean = 4780; activity call = inactive
UNK (unk zinc finger) [SID255361701] → migration robust z-score = 0.83; nuclei per well, duplicate mean = 6342; activity call = inactive
GAA (alpha glucosidase) [SID255349783] → migration robust z-score = 1.14; nuclei per well, duplicate mean = 6518; activity call = inactive

Not a retest: 2 of the entries above.
PWWP3A (PWWP domain containing 3A, DNA repair factor) [SID255361594] → migration robust z-score = -1.49; nuclei per well, duplicate mean = 6560; activity call = inactive
KCNK4 (potassium two pore domain channel subfamily K member 4) [SID255357357] → migration robust z-score = -0.44; nuclei per well, duplicate mean = 5366; activity call = inactive
